Assay results from paper PMC6016456, “Human DHEA sulfation requires direct interaction between PAPS synthase 2 and DHEA sulfotransferase SULT2A1” (The Journal of Biological Chemistry, 2018).
No constants are given. Whether binding was seen depends on the method and setting. Binding seen in cells or lysates may run through a third protein. Some entries that bind do so weakly or less than the wild type.

Target: T1, PAPS synthase 1 (human (endogenous in HepG2)) (UniProt O43252)
T1 sequence: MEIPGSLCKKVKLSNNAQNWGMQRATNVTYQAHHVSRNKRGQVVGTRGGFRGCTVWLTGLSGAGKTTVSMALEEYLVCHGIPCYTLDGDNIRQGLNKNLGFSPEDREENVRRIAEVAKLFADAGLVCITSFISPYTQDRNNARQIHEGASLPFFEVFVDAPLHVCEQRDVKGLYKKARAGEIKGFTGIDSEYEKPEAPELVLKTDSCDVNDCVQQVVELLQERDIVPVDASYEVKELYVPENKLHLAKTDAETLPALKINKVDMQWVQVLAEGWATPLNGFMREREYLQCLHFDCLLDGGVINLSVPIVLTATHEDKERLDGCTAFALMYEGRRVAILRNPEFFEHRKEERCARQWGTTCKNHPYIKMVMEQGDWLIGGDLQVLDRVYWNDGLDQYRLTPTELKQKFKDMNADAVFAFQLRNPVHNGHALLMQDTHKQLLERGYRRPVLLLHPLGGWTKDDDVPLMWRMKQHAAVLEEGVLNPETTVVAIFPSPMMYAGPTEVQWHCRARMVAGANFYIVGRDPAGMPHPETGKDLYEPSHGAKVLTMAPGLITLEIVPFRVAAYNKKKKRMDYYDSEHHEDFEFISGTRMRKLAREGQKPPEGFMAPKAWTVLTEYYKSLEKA
Assay: proximity ligation; endogenous proteins in fixed, permeabilized HepG2 cells; mouse monoclonal antibodies for PAPSS1 or PAPSS2 and a rabbit polyclonal SULT2A1 antibody; Duolink In Situ PLA; foci per cell counted with CellProfiler, at least 400 cells from three experiments

B1: DHEA sulfotransferase SULT2A1 (enzyme, UniProt Q06520 1-285)
chain: MSDDFLWFEGIAFPTMGFRSETLRKVRDEFVIRDEDVIILTYPKSGTNWLAEILCLMHSKGDAKWIQSVPIWERSPWVESEIGYTALSETESPRLFSSHLPIQLFPKSFFSSKAKVIYLMRNPRDVLVSGYFFWKNMKFIKKPKSWEEYFEWFCQGTVLYGSWFDHIHGWMPMREEKNFLLLSYEELKQDTGRTIEKICQFLGKTLEPEELNLILKNSSFQSMKENKMSNYSLLSVDYVVDKAQLLRKGVSGDWKNHFTVAQAEDFDKLFQEKMADLPRELFPWE
  binding: binds
